Experimental data: PubChem BioAssay AID1224826 (NIAID, 2016)
Purpose: 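Knock-downs that raise or lower Tnf reporter signal after endotoxin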 (primary screen). System: RAW264.7 G9 macrophages from mouse bearing reporters for p65 (GFP) and the Tnf promoter (mCherry). Knock-down reagent: siRNA pool against mouse genes, 100 nM. Duration: 16 h of LPS stimulation, after 2 days of siRNA transfection. Treatment: bacterial lipopolysaccharide (Salmonella minnesota R595), 10 ng/ml. Detection: 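Nuclear mCherry signal of the Tnf promoter reporter measured by imaging after background removal, scaled to each plate median and turned into robust z-scores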. Scale: Tnf reporter robust z-score: higher = stronger Tnf promoter reporter signal after LPS. Rule for the call: 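a well counts as active at a score of -1.3 or below (Tlr4 knock-down control median) or above 3 (raised signal); controls and wells holding fewer than 50 cells are excluded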. Meaning of the calls: active = Tnf reporter clearly lowered or raised; inactive = no clear change in Tnf reporter.
This is an unselected part of about 17,000 deposited reagents. Over the whole deposit, about 1,110 (6.6%) are marked active. 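Active means lowered or raised reporter signal; replicate intensities are raw and not normalised per plate.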 Entries without a mark were called inactive. The numbers tell different reagents against one gene apart. Some reagents were tested in more than one well and are listed for each. Further read-outs or replicates are left out here. No sequences are given here.

gene symbol,pool no.,Tnf reporter robust z-score,fewer than 50 cells in well
Adgb,1,1.49,enough cells in well
Parp1,1,-1.09,enough cells in well
Mtf2,1,0.92,enough cells in well
Exo1,1,-0.48,enough cells in well
Cep68,1,-0.3,enough cells in well
Gfra3,1,0.04,enough cells in well
Ascl3,1,-1.83 (active),enough cells in well
Topbp1,1,0.7,enough cells in well
Nek9,1,-0.91,enough cells in well
Lefty1,1,-0.66,enough cells in well
Tkt,1,-0.29,enough cells in well
Islr2,1,1.05,enough cells in well
Or10ak13,1,-1.38 (active),enough cells in well
Mocs2,1,0.31,enough cells in well
Slc16a12,1,-1.13,enough cells in well
Lrriq4,1,4.29 (active),enough cells in well
Zfp51,1,2.37,enough cells in well
Spta1,1,-0.41,enough cells in well
Gosr1,1,0.34,enough cells in well
Rasgrp1,1,,fewer than 50 cells per well; well left out of calls
Pigh,1,-0.69,enough cells in well
Zbtb46,1,2.13,enough cells in well
Cox4i2,1,-0.84,enough cells in well
Cox7a2,1,0.35,enough cells in well
Cela3b,1,0.97,enough cells in well
Ewsr1,1,0.05,enough cells in well
Bdkrb2,1,0.23,enough cells in well
Bdkrb2,1,0.71,enough cells in well
Tank,1,-0.9,enough cells in well
Or51v14,1,2.02,enough cells in well
Papolb,1,-0.98,enough cells in well
AA986860,1,-0.33,enough cells in well
Fv4,1,-0.43,enough cells in well
Gstz1,1,0.66,enough cells in well
Vmn1r69,1,-0.56,enough cells in well
Sh2d1a,1,0.21,enough cells in well
Defb35,1,-0.61,enough cells in well
Cdh8,1,-0.32,enough cells in well
Hdac11,1,-0.2,enough cells in well
Rab3a,1,0.91,enough cells in well
Slc16a9,1,-1.52 (active),enough cells in well
Myo7a,1,-0.69,enough cells in well
Ahsg,1,-0.98,enough cells in well
Gpr12,1,-1.55 (active),enough cells in well
Trim9,1,-0.26,enough cells in well
Trim9,2,1.33,enough cells in well
Aqp12,1,-1.06,enough cells in well
Epha5,1,1.15,enough cells in well
Pax4,1,-1.26,enough cells in well
Nrn1,1,1.4,enough cells in well
Ndufv1,1,-0.77,enough cells in well
Col8a2,1,,fewer than 50 cells per well; well left out of calls
Pou1f1,1,-0.13,enough cells in well
Ppfia1,1,0.54,enough cells in well
Stk38l,1,-0.7,enough cells in well
Ppp2r5d,1,-0.05,enough cells in well
Acad10,1,-0.45,enough cells in well
Acad10,1,-0.24,enough cells in well
Cenatac,1,2.63,enough cells in well
Npffr1,1,-1.17,enough cells in well
Slc27a5,1,0.1,enough cells in well
Uqcrc2,1,0.49,enough cells in well
Ptcd3,1,1.63,enough cells in well
Tasor2,1,-1.37 (active),enough cells in well
Cpne2,1,0.4,enough cells in well
Sec63,1,2.73,enough cells in well
Mrpl21,1,-0.02,enough cells in well
Crybg1,1,-0.6,enough cells in well
Napb,1,-0.97,enough cells in well
Or4a39,1,-1.51 (active),enough cells in well
Casp3,1,-0.03,enough cells in well
C730034F03Rik,1,2.68,enough cells in well
Phlda1,1,,fewer than 50 cells per well; well left out of calls
Plxnb3,1,-0.26,enough cells in well
Spem2,1,,fewer than 50 cells per well; well left out of calls

Ordered by “Tnf reporter robust z-score” (high to low): some entries from above
gene symbol,pool no.,Tnf reporter robust z-score,fewer than 50 cells in well
Sec63,1,2.73,enough cells in well
Ptcd3,1,1.63,enough cells in well
Uqcrc2,1,0.49,enough cells in well
Cpne2,1,0.4,enough cells in well
Slc27a5,1,0.1,enough cells in well
Mrpl21,1,-0.02,enough cells in well
Crybg1,1,-0.6,enough cells in well
Napb,1,-0.97,enough cells in well
Npffr1,1,-1.17,enough cells in well
Tasor2,1,-1.37 (active),enough cells in well
